Not every detail of the peptide structures is certain; ends, links or a residue may be inferred. Peptide text beside a SMILES is read from it.
Assays:
primary human CD3+ T = experiment: Transwell migration towards SDF-1; assay type: cell-based; details: primary human CD3+ T cells, 3 hrs preincubation
[1] = system: mouse BM mononuclear cells; experiment: Transwell migration towards SDF-1; assay type: cell-based; details: 1 and 10 μM, 3 hrs preincubation
[2] = system: G2 cells and mouse BM MNC; experiment: Chemotaxis assay (untreated cells migrate towards peptide in bottom chamber); assay type: cell-based; details: 1 and 10 μM peptide in bottom chamber, 4 hrs
Protocol: FIGS. 9A-9B. AK-1 increases SDF-1-induced migration and chemotaxis of G2 and mouse bone marrow mononuclear cells (BM MNC). (A) G2 cells and mouse BM MNC were preincubated with 1 and 10 μM AK-1 for 3 hrs in serum free medium, washed and allowed to migrate towards SDF-1. Migrated cells were collected and calculated by flow cytometry. Percentage of migrated cells is presented as compared to untreated control taken as 100%. (B) Untreated G2 cells and mouse BM MNC were put to the upper chambers of the transwell plates and allowed to migrate towards 1 and 10 μM AK-1 present the bottom chambers of the transwell plates for 4 hrs. Percentage of migrated cells is presented as compared to untreated (UT) control taken as 100%. Data shown are the mean±SD of 2 separate experiments. *P<0.05 compared to control.
Various cells (1×10^6/mL), untreated or pretreated with peptides for 3 hrs at 96-well flat bottom plates at 37° C. were washed, 2×10^5 cells/100 μL were added to the upper chambers of Costar 24-well transwell plates with 5 μm pore filters (Corning Inc., Corning, N.Y.) and allowed to migrate for 2-4 hrs at 37° C. (95% humidity, 5% CO2) spontaneously or towards 50 ng/mL SDF-1 (rhSDF-1, Peprotech, Rocky Hill, N.J.) in medium supplemented with 10% FCS. […] Migrated cells were collected from the lower chambers and counted using a flow cytometer. […]

The chains behind the UniProt entries cited, without tags or fusion partners.
UniProt P61073, whole entry: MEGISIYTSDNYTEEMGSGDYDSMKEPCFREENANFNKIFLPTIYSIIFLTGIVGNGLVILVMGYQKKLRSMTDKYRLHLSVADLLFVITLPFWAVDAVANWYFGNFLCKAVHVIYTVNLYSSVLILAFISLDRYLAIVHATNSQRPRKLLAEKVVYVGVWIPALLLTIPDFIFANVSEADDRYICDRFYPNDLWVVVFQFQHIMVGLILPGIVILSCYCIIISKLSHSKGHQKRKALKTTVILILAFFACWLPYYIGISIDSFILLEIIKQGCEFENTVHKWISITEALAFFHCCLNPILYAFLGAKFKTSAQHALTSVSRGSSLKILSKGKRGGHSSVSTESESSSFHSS

[3] = system: various normal and malignant cell types; experiment: Transwell migration towards SDF-1; assay type: cell-based, human; details: 10 μM, 3 hrs preincubation
[4] = system: human cord blood CD34+ cells; experiment: Transwell migration towards SDF-1; assay type: cell-based; details: 1 μM, 3 hrs preincubation
[5] = system: human peripheral blood mononuclear cells; experiment: Transwell migration towards SDF-1; assay type: cell-based; details: human PBMC, 1 and 10 μM, 3 hrs preincubation
G2 cells = experiment: Homing assay of pretreated G2 cells in NOD/SCID mice; assay type: in vivo, mouse; details: 10 μM pretreatment 3 hrs, i.v. into non-irradiated NOD/SCID mice, 16 hrs
Protocol: FIGS. 8A-8D. Effect of TL-1 and cyclic TL-1 on in vitro and in vivo cell migration. (A, C) Human CD3^+, G2, cord blood CD34^+ and peripheral blood mononuclear (PBMC) cells were preincubated with 1 and 10 μM TL-1 for 3 hrs in serum free medium, washed and allowed to migrate towards SDF-1. Migrated cells were collected and calculated by flow cytometry. Percentage of migrated cells is presented as compared to untreated (UT) control taken as 100%. (B) G2 cells were similarly preincubated with 10 μM TL-1 or cTL-1 for the indicated periods of time and percentage of migrated cells is depicted. (D) Homing assay. G2 cells were similarly preincubated with 10 μM TL-1 or cTL-1 for 3 hrs, washed and i.v. injected (10×10^6/mouse) to non-irradiated NOD/SCID mice. Percentage of G2 cells in the murine BM and spleens was determined by staining with anti-human CD45 Ab and compared with untreated (UT) cells. […]
G2 cells (10×10^6/mL) pretreated with the peptides for 3 hrs as described above, were injected i.v. into non-irradiated NOD/SCID mice, which were sacrificed 16 hrs later. Samples of BM cells flushed from both femur and tibia bones and spleen cell suspension were prepared, and the percentage of human cells was determined by staining with anti-human CD45-FITC mAb (ImmunoQuality Products, Groningen, The Netherlands) as described (Spiegel, A., et al., 2004).

CXCR4 = molecular target: T1, CXCR4 (Homo sapiens, UniProt P61073); experiment: CXCR4 membrane expression (flow cytometry); assay type: cell-based; details: 3 hrs
T1 construct: endogenous in cells; host or cells: human cord blood CD34+ cells, human pre-B-ALL G2 cells, U937 and HL-60 cells
Protocol: (§1) FIGS. 10A-10C. TL-1 and cTL1 down-regulate CXCR4 expression on human cord blood CD34^+ and G2 cells. Human cord blood CD34^+ and G2 cells were incubated with 1 or 10 μM TL-1 or cyclic TL-1 for 3 hrs or left untreated (UT), washed, stained with CXCR4 and CCR5 Ab and analyzed by flow cytometry. Representative histograms from 3 separate experiments are shown. FIG. 10A—effect of TL-1 on CXCR4 expression. FIG. 10B—effect of cTL-1 on CXCR4 expression. FIG. 10C—effects of TL-1 and cTL-1 on CCR5 expression.
(§2) Various cell types (1×10^6/mL) were pretreated with the peptides for 3 hrs as described above, washed and then stained in staining buffer (PBS supplemented with 0.5% FCS and 0.01% sodium azide) with mouse anti-human CXCR4-PE, CCR5-FITC (R&D Systems, Minneapolis, Minn.) or CD45-FITC (ImmunoQuality Products, Groningen, The Netherlands) mAbs for 30 min at 4° C. and analyzed by flow cytometry as described (Kalinkovich, A., et al., 2006). Appropriate IgG were used as the isotype controls.
(§3) Recently, it has been shown that HBD3 could induce internalization of CXCR4 but not of CCR5 in the CEM T cells expressing both CXCR4 and CCR5 (Feng, Z. et al., 2006) implying CXCR4 specificity in HBD3 action.

CCR5 = CCR5 membrane expression (flow cytometry); assay type: cell-based, human; details: tested cells, 3 hrs preincubation
Protocol: as §1, §2, §3

CD45 = CD45 membrane expression (flow cytometry); assay type: cell-based, human; details: tested cells, 3 hrs preincubation
Protocol: as §2, §3

With `N=C(N)NCCC[C@H](NC(=O)CNC(=O)[C@@H](N)CO)C(=O)N[C@@H](CCCCN)C(=O)N[C@@H](CS)C(=O)N[C@@H](CS)C(=O)N[C@@H](CCCNC(=N)N)C(=O)N[C@@H](CCCCN)C(=O)N[C@@H](CCCCN)C(=O)N[C@@H](CCCCN)C(=O)O` [AK-1, SGRKCCRKKK] (H-SGRKCCRKKK-OH) the SDF-1-induced migration (primary human CD3+ T) was “significantly up-regulated”, the SDF-1-induced migration [1] was “significantly up-regulated” and the “chemotaxis of untreated cells towards the peptide” value [2] was “very strong stimulating effect”.
In the case of `N=C(N)NCCC[C@H](NC(=O)CNC(=O)[C@@H](N)CCCNC(=N)N)C(=O)N[C@@H](CCCCN)C(=O)N[C@@H](CS)C(=O)N[C@@H](CS)C(=O)N[C@@H](CCCNC(=N)N)C(=O)N[C@@H](CCCNC(=N)N)C(=O)N[C@@H](CCCCN)C(=O)N[C@@H](CCCCN)C(=O)O` [TL-1, RGRKCCRRKK] (H-RGRKCCRRKK-OH), the SDF-1-induced migration [3] is reported as “significantly reduced”, the “inhibition of transwell migration towards SDF-1” value [4] is reported as “more than 90%” and the SDF-1-induced migration [5] is reported as “opposite (stimulating) effect”. For the same compound, the “chemotaxis of untreated cells towards the peptide” value [2] was “ineffective”, the “homing of pretreated G2 cells to the BM” value (G2 cells) was “elevated homing” and the “homing of pretreated G2 cells to the spleen” value (G2 cells) was “elevated homing”. For the same compound, the CXCR4 expression (CXCR4; G2 cells, 1 or 10 μM) was “decreased CXCR4 expression”, the CXCR4 expression (CXCR4; HL-60 cells) was “no effect” and the CXCR4 expression (CXCR4; U937 cells) was “no effect”. The CXCR4 expression (CXCR4; human cord blood CD34+ cells, 1 or 10 μM) was “decreased CXCR4 expression”, the “membrane expression of CCR5” value (CCR5) was “either unaffected or slightly increased” and the “membrane expression of CD45” value (CD45) was “either unaffected or slightly increased”.
